# According to PubChem BioAssay AID1347426 (Functional Genomics Laboratory (NCATS/FGL), 2020):
# About 1,400 (4.5%) of roughly 31,000 sequences were called active.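 Rule for the calls: active = median seed-adjusted z-score above 1 or below -1; inactive = the rest.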 This is one part of the list.
# Assay: Novel Modifiers of Survival Motor Neuron (SMN) Protein: Gene Identification via Genome-wide siRNA Screen;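 note: luminescence tracks full-length SMN protein made from the SMN2 reporter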
# Settings: HEK293T SMN2-luciferase reporter, siRNA knockdown, 72 h; actives lie on both sides
# Outline: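 Genome-wide siRNA screen (10418 genes, 3 siRNAs each, 1 pmol per well) by reverse transfection in HEK293T cells stably carrying an SMN2-luciferase reporter; luminescence after 72 hours, normalized to negative-control siRNA, log10-transformed, MAD-scored.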
row,Sequence,median seed-adjusted z-score
1,CAUCCUAGCUAGCAUCUUUTT against SLC20A1,inactive: -0.186
2,CCACAUCUAAGAAAAUUUATT against PAX4,inactive: 0.0811
3,GGACUGACUCACAACUUAATT against ZNF527,inactive: 0
4,GGUUUUACAAAGGUUAAUATT against CACNB2,inactive: 0
5,CCAGUUAUUCAUGAACUUATT against DNAJB4,inactive: -0.12
6,AAUUCCUCUUCAACAUGUATT against HOXD9,inactive: -0.123
7,GGAAAUGCACAAGAUCUUUTT against BIN3,inactive: 0.16
8,GGAUGUUGGAAGACUCCGATT against NEO1,inactive: 0.16
9,GUACCUCCAUGGAGACAUATT against MKRN3,inactive: 0.402
10,AGAACAGCUUGACUCCCAUTT against MMP25,inactive: 0
11,CGACCUUCAAAGUUAACAATT against CLIP1,inactive: 0.853
12,GGCUGAAGCAUGCCCAGAATT against PPP1R16A,inactive: 0.322
13,GGCUCGAAUGGGUUCAUCUTT against CSNK2A1,inactive: -0.408
14,GAUCCUAAUCAGAACGUGATT against RND3,inactive: -0.132
15,GGCCGAGUGUACUACUUCATT against PIN1,inactive: 0.156
16,GGAUGACAGUAACUUCGAUTT against EDEM3,inactive: 0.119
17,GCUGCGAUAUCAACGGUGATT against SOCS6,inactive: 0.359
18,CUGAAGACAUUGGUUCAAATT against MIXL1,inactive: -0.204
19,GAAGGAAACGAGCAGAUGATT against SGTA,inactive: 0.819
20,GGAUAGGAACACCAACUAATT against PFKFB1,inactive: -0.561
21,CCAAGGCAUCGGACAAUGATT against SLCO1B3,inactive: -0.303
22,CCCACAAGCUCAACUGUGATT against DFFB,inactive: 0.242
23,CAAAGUUCAGUGUUACGAUTT against ENC1,inactive: -0.132
24,GGACCUGAAUAAGCGCAAATT against GNAI2,inactive: 0
25,GCGAAAGGAUGCUUGCUAATT against RNF160,inactive: -0.163
26,GCAUGGUGGUGUACACGUUTT against FLVCR2,inactive: -0.336
27,GUAAAGCGAAUUGCACUUUTT against CRCT1,inactive: -0.146

row,Sequence,median seed-adjusted z-score
1,CGGACAUACUCUGAAAUUATT against PCDHAC2,inactive: -0.107
2,GGAUCAUGAGGAUUUCAGATT against ACTN2,inactive: 0.165
3,CGGGUACUGUUCACAGCUATT against MPL,inactive: -0.0153
4,CGUCAUUGUCAGUUACAUATT against GPR125,inactive: 0.516
5,GACAUUCGAUUGGAUGGAATT against EPYC,inactive: 0.00264
6,GGCUGAUAGUUUAGGAGUUTT against EIF5B,active: 1.68
7,GGAGGAUGACAAGAUCUAUTT against RNF113A,inactive: -0.128
8,CUGCUGUCAUUGCUCCUGATT against CCL27,inactive: 0
9,CAGAGAUAGUUGUGCUUUUTT against MEST,inactive: -0.0503
10,CUGUUGAGGUUGUUAUUGATT against GABPA,active: 1.43
11,GAAUGGAGGGAACACUUUUTT against ZNF562,inactive: -0.0954
12,GAGUGUCCACAUCAAGAGATT against ITGAD,inactive: 0.188
13,GAAUUCCCGUGGACUUGAATT against ADCK2,inactive: 0.0823
14,GCAUUUUUAUCGUGCUCAUTT against GRIK5,inactive: -0.242
15,CAAGGAUGUUUAAAAUCUATT against FAS,inactive: -0.377
16,GGUUUGCCCUUAUCUUGUATT against RDH10,inactive: -0.28
17,GAUGAAGAGUGACUUGUUUTT against PKD1,inactive: -0.228
18,CGAUCGAGUGGAUGAAGAATT against MMP24,active: -1.28
19,CCUCCAACGUAUCAUGAGATT against CYP7A1,inactive: -0.0092
20,GGAACUACAUCUUCGAGAUTT against LRRC33,inactive: -0.194
21,CCAUGGAUGCUCCUCUGAATT against PLAUR,inactive: -0.118
22,ACUGAUUGCUUGGAUUAUATT against OTX2,inactive: -0.00351
23,GCAUGGAGGUGGUCUAUGATT against MKRN1,inactive: -0.496
24,GGACAGGAAGAUACAAGAATT against GPR113,inactive: -0.434
25,CAAACAGCACUAUUUCAUUTT against KCTD1,inactive: 0
26,CAGGCAAAAAGAAGCAUUATT against PADI1,inactive: 0
27,CCAGCUCCACGAAAAAGAATT against ZNF395,inactive: -0.0986

# Single entries from the entries so far.
# Value of GGAGGAUGACAAGAUCUAUTT against RNF113A under median seed-adjusted z-score: inactive: -0.128
# Value of CAAGGAUGUUUAAAAUCUATT against FAS under median seed-adjusted z-score: inactive: -0.377
# Value of CAGAGAUAGUUGUGCUUUUTT against MEST under median seed-adjusted z-score: inactive: -0.0503
